Results on one compound are retold here after article PMC7317717, “Electrophysiological Characterization of Transport Across Outer‐Membrane Channels from Gram‐Negative Bacteria in Presence of Lipopolysaccharides” (Angewandte Chemie (International Ed. in English), 2020).

The experiment deals with T1, OmpF (OmpF-WT) (Escherichia coli, UniProt P02931).
T1 construct: purified wild-type OmpF, mature porin, homotrimer, reconstituted in planar lipid bilayer; OMV form overexpressed in E. coli BL21(DE3)omp8
T1 sequence (P02931 23-362): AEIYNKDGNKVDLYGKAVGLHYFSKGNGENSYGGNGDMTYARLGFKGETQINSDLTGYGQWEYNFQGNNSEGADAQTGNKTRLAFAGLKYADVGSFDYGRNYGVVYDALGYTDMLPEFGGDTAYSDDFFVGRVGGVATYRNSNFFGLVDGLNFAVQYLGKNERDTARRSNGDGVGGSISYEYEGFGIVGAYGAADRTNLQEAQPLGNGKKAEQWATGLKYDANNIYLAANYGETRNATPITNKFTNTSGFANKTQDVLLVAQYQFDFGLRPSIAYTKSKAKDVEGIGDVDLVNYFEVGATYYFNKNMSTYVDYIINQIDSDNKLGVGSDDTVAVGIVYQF
Briefly: single-channel electrophysiology, planar lipid bilayer, ion current blockage events. The class given is binding. The note with it: purified OmpF; 250 uM compound; 1 M KCl, 20 mM MES, pH 6.

`O=C(O)c1cn(C2CC2)c2cc(N3CCNCC3)c(F)cc2c1=O` [Ciprofloxacin]: the event rate entry was “In case of Ciprofloxacin, no significant change in the event rate was observed”.
